Results are given in words; binding and its absence hold for the method and conditions named. In cells and extracts the contact can be indirect. A yes stands for co-enrichment or nearness to the bait. Other partners may have been found. Tags and fused reporters may be left off the sequences shown.
Biological target: T1, HA-tagged FKBPL (pig) (UniProt A5A8W3)
T1 sequence: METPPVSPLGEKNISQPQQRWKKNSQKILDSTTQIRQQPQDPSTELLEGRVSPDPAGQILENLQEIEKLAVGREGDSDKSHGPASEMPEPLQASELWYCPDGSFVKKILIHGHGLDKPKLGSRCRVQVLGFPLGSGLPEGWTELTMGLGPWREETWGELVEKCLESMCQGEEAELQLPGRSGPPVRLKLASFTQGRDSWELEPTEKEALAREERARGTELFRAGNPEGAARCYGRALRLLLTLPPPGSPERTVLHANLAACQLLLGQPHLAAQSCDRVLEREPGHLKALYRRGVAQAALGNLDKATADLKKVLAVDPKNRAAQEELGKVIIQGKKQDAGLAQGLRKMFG
Assay: affinity purification with mass spectrometry; IP with anti-HA antibody from 2472 pig 8-cell embryos injected with HA-FKBPL mRNA; IgG as control; two specific silver-stained bands analysed by mass spectrometry

Sequences of proteins named here, by UniProt entry; tags and fusion partners are left off.
UniProt A0ACM8QJT5: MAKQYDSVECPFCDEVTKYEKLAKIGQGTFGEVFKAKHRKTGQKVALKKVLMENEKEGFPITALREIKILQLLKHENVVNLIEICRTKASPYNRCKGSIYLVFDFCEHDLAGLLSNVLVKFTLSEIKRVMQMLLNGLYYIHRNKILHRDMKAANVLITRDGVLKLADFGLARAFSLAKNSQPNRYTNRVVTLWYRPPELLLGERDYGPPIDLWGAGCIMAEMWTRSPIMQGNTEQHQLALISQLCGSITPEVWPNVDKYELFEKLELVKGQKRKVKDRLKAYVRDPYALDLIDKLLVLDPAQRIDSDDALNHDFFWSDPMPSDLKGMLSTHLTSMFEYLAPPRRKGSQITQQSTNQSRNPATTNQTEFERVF

Substance | binding
CDK9 (from UniProt A0ACM8QJT5 1-372) | binds
HSP90AA1 (from UniProt O02705 1-733) | binds
